Test results as given in publication PMC3079584.
No constants are given. Whether binding was seen depends on the method and setting. In cells and extracts the contact can be indirect. Some results given as binding are weak or reduced against the parent protein; the word gives no strength. Tags and fused reporters may be left off the sequences shown.

Target: She2p-Myc (wild type) (Saccharomyces cerevisiae), P36068
Assay: co-IP; anti-Myc antibody (9E11) on magnetic Protein G beads precipitates She2p-Myc from yeast (she2Δ background); Western blot against HA-tagged She3p; two independent blots quantified
Conditions: remark: other sources report otherwise

B1: HA-tagged She3p, P38272 1-425 (protein)
chain: MSDQDNTQTSSSKLAPHHNIFMANLESSPTKDRNTSSQNASSSRVIESLHDQIDMLTKTNLQLTTQSQNLLSKLELAQSKESKLLENLNLLKNENENLNSIFERKNKKLKELEKDYSELSNRYNEQKEKMDQLSKLAKNSSAIEQSCSEKLQNMEVNYNSLLESQNLYRDHYSDEISKLNEKIGLLELELSNQNLNYGSDTSSNSDIELNLNKFNDSVKDLKSLETEKDSKLSKIITHSLDELNLQSWLNLYQTNENLISTFAEKMDLKDVLKRNDEKISNKGAVVQTLKKNVQTQVESNNADALSSNNAQDMLPIKMVKLRKTPNTNDSSSNGNSSNNKRRSFYTASPLLSSGSIPKSASPVLPGVKRTASVRKPSSSSSKTNVTHNNDPSTSPTISVPPGVTRTVSSTHKKKGNSMVVHGAQS
- binding: binds
